The text below walks through data of patent US4399125A (priority 1981, dated 1983).

This data set in a line: general procedure: Boc solid-phase peptide synthesis; Boc-Gly-resin; p-nitrophenyl ester with hydroxybenzotriazole. As to conditions: for isolated yield / crude mass / isolated mass: whole synthesis.

Regarding “β-(S-Benzylmercapto)-β,β-cyclopentamethylenepropionyl-Tyr(Me)-Phe-Gln-Asn-Cys(Bzl)-Pro-Arg(Tos)-Gly-NH2”, the step yield (coupling step) is recorded as 77.3%. Also, under “based upon initial glycine content of the resin, scale 0.4 mmol”, the isolated yield is 50.7%. Further, for the setting “scale 0.4 mmol”, the crude mass was found to be 410 mg and the isolated mass was 302 mg.

“β-(S-Benzylmercapto)-β,β-cyclopentamethylenepropionyl-Tyr(Bzl)-Phe-Gln-Asn-Cys(Bzl)-Pro-Arg(Tos)-Gly-NH2” displayed an isolated yield (based on initial Gly content on the resin, scale 0.5 mmol) of 62.4%. Moreover, under “scale 0.5 mmol”, the crude mass is given as 723 mg and the isolated mass is 488 mg.
